Results are given in words; binding and its absence hold for the method and conditions named. Binding seen in cells or lysates may run through a third protein. Some results given as binding are weak or reduced against the parent protein; the word gives no strength. Where a sequence is shown, tags or fusion partners need not be part of it.
Legend:
Assay in all cases: co-IP; Neuro2A cells co-transfected with the tagged constructs (3 µg DNA each), lysed after 48 h in RIPA buffer (50 mM Tris/HCl pH 8, 100 mM NaCl, 1 mM EDTA, 0.1% SDS, 1% Nonidet P-40, 0.5% sodium deoxycholate); lysate incubated overnight at 4 °C with antibodies (Flag, GFP or c-myc) bound to protein G-Sepharose, washed with RIPA; western blot; bound protein normalised to total protein and to the immunoprecipitated bait
[1] = molecular target: T1, GFP-LGN (mouse, pEGFP-C1-LGN; coded by the GPSM2 gene) (mouse) (UniProt Q8VDU0)
T1 sequence: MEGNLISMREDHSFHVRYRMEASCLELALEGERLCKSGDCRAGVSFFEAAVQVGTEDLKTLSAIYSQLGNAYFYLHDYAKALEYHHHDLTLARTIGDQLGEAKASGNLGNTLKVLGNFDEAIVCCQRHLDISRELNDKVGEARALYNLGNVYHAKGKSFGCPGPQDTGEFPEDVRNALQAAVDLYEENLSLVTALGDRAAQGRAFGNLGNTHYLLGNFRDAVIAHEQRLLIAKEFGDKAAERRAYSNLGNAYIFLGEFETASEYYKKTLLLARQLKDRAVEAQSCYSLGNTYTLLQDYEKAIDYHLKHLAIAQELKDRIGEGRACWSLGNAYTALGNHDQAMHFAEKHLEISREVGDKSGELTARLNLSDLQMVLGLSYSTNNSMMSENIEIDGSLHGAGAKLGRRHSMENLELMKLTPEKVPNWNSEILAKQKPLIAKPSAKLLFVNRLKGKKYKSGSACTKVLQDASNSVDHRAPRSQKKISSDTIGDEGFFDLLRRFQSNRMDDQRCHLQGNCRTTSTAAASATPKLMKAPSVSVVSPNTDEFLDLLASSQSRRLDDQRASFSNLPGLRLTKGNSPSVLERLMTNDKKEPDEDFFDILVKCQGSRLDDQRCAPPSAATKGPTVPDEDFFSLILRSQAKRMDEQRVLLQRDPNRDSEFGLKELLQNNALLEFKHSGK

Chains of the proteins cited; added tags and fusions are not shown.
UniProt Q02248: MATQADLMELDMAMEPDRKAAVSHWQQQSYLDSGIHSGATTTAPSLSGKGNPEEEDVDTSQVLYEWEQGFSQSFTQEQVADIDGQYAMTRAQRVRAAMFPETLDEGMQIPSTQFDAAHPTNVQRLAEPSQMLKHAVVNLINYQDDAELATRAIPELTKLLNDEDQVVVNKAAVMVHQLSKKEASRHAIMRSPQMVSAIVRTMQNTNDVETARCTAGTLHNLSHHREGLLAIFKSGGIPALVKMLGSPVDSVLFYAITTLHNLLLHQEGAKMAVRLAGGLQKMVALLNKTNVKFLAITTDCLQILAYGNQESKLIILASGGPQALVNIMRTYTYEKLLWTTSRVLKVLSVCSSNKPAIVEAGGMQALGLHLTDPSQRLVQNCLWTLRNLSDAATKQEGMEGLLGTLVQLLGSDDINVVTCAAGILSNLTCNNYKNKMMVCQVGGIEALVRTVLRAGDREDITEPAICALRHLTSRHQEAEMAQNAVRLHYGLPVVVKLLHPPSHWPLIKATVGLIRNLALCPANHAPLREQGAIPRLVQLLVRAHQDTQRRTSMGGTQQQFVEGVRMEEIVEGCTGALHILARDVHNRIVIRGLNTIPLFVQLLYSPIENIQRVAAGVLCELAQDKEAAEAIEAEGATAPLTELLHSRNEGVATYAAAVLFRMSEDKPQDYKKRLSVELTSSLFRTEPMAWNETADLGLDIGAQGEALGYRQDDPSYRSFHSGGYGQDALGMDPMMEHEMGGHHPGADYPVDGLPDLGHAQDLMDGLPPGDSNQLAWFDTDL
UniProt Q8N122: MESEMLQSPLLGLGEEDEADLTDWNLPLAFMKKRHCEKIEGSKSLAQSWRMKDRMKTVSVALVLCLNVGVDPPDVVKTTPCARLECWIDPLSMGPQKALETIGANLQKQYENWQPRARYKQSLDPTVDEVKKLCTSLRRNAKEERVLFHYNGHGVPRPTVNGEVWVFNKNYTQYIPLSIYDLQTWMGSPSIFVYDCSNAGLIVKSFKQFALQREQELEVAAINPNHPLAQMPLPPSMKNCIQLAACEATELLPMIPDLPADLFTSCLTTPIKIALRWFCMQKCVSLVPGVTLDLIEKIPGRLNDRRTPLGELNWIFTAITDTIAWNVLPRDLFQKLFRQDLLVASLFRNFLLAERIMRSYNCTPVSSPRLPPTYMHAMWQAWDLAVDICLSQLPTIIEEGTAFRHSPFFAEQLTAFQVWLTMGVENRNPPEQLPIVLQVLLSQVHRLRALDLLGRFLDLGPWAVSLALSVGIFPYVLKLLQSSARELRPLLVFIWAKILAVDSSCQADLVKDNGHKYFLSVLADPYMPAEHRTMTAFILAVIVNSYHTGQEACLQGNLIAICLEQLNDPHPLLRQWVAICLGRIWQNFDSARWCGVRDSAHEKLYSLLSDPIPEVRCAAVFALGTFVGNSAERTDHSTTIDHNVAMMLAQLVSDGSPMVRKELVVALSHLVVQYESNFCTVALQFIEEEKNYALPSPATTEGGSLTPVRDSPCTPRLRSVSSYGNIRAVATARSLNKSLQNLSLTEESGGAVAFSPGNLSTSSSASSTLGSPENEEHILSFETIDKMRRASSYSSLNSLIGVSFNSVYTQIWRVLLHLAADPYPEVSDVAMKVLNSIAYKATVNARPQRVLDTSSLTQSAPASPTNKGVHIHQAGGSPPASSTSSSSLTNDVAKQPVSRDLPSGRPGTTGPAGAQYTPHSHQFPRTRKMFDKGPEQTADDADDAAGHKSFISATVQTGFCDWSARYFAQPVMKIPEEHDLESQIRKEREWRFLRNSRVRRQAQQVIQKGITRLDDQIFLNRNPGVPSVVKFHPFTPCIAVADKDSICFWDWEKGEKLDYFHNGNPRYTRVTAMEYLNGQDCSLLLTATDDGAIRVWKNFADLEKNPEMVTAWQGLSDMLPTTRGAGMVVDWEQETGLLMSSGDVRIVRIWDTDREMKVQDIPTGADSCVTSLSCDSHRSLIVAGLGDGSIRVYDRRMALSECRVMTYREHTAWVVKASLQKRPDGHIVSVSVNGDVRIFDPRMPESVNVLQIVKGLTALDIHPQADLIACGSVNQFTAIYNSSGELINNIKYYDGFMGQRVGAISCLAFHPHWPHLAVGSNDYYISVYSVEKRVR

[2] = molecular target: GFP-β-catenin (mouse, pEGFP-β-catenin) (mouse) (UniProt Q02248)
[3] = molecular target: HA-Raptor (human, HA-CMV-Raptor) (human) (UniProt Q8N122)

Measured: binding

B1: Flag-DLGAP4 (wild type human Disks large-associated protein 4) (protein, UniProt Q9Y2H0-1 1-989)
chain: MKGLGDSRPRHLSDSLDPPHEPLFAGTDRNPYLLSPTEAFAREARFPGQNTLPGDGLFPLNNQLPPPSSTFPRIHYNSHFEVPEESPFPSHAQATKINRLPANLLDQFEKQLPIHRDGFSTLQFPRGEAKARGESPGRIRHLVHSVQRLFFTKAPSLEGTAGKVGGNGSKKGGMEDGKGRRAKSKERAKAGEPKRRSRSNISGWWSSDDNLDGEAGAFRSSGPASGLMTLGRQAERSQPRYFMHAYNTISGHMLKTTKNNTTELTAPPPPPAPPATCPSLGVGTDTNYVKRGSWSTLTLSHAHEVCQKTSATLDKSLLKSKSCHQGLAYHYLQVPGGGGEWSTTLLSPRETDAAAEGPIPCRRMRSGSYIKAMGDEDSDESGGSPKPSPKTAARRQSYLRATQQSLGEQSNPRRSLDRLDSVDMLLPSKCPSWEEDYTPVSDSLNDSSCISQIFGQASLIPQLFGHEQQVREAELSDQYEAACESACSEAESTAAETLDLPLPSYFRSRSHSYLRAIQAGCSQEEDSVSLQSLSPPPSTGSLSNSRTLPSSSCLVAYKKTPPPVPPRTTSKPFISVTVQSSTESAQDTYLDSQDHKSEVTSQSGLSNSSDSLDSSTRPPSVTRGGVAPAPEAPEPPPKHAALKSEQGTLTSSESHPEAAPKRKLSSIGIQERTRRNGSHLSEDNGPKAIDVMAPSSESSVPSHSMSSRRDTDSDTQDANDSSCKSSERSLPDCTPHPNSISIDAGPRQAPKIAQIKRNLSYGDNSDPALEASSLPPPDPWLETSSSSPAEPAQPGACRRDGYWFLKLLQAETERLEGWCCQMDKETKENNLSEEVLGKVLSAVGSAQLLMSQKFQQFRGLCEQNLNPDANPRPTAQDLAGFWDLLQLSIEDISMKFDELYHLKANSWQLVETPEKRKEEKKPPPPVPKKPAKSKPAVSRDKASDASDKQRQEARKRLLAAKRAASVRQNSATESADSIEIYVPEAQTRL
binds: all assays above
